Our source for the binding values is publication PMC3514159.

By UniProt entry, the sequences of proteins in these tests, tags left out.
UniProt P09022: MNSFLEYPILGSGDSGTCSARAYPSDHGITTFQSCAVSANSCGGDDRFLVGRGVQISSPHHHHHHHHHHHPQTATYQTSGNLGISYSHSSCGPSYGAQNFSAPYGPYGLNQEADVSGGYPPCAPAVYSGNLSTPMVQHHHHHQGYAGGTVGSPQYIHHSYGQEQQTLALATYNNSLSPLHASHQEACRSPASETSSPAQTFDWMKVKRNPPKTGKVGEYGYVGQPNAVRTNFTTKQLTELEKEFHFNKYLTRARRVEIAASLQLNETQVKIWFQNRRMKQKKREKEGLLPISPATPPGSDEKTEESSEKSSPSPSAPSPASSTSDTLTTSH
UniProt O95967: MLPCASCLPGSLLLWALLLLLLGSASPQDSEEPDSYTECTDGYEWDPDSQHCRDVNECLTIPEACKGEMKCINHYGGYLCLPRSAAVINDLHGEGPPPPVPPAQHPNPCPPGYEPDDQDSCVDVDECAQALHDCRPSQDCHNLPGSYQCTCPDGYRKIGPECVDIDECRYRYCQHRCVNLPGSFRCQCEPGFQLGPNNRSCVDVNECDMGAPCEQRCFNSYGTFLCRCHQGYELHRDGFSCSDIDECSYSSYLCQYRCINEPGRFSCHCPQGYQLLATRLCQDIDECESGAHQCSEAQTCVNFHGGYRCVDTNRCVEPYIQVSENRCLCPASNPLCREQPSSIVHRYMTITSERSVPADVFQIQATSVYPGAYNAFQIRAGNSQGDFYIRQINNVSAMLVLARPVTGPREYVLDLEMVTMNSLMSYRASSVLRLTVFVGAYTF
UniProt Q9UKS7: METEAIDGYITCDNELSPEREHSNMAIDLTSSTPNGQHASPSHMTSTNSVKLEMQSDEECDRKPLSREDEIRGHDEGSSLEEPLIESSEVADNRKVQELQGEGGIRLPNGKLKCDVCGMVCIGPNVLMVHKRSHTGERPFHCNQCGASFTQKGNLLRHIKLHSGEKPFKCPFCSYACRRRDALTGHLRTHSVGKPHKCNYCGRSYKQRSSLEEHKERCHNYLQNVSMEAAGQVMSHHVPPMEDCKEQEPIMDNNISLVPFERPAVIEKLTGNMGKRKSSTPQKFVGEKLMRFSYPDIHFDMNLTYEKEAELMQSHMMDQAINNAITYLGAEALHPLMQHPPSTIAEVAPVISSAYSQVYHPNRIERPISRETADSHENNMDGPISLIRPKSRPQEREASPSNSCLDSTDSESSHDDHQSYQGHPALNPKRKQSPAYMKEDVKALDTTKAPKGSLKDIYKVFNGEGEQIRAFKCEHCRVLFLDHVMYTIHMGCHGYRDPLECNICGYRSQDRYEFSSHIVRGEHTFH
UniProt P48059: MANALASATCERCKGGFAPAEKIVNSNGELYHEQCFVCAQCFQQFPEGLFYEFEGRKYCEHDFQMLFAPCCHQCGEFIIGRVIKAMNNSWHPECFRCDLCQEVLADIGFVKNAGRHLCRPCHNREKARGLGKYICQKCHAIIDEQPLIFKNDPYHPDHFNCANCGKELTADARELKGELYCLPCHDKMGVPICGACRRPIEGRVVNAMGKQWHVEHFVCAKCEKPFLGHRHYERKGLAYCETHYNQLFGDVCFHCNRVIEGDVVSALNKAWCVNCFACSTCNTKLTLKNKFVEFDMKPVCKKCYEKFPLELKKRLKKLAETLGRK
UniProt Q9BYM8: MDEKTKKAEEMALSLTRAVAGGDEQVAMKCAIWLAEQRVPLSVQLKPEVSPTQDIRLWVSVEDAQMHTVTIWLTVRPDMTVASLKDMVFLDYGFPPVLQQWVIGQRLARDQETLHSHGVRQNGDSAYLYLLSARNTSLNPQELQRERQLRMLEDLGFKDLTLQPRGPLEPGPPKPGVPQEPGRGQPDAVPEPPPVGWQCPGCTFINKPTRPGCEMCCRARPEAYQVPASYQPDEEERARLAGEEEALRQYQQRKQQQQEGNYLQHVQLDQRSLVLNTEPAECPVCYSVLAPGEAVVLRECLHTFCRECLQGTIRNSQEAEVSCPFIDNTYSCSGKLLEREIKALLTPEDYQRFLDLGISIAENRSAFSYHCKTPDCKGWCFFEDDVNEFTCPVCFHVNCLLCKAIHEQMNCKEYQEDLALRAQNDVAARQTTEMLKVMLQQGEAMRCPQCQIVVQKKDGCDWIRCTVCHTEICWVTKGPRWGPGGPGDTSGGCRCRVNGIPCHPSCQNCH
UniProt Q8N5R6: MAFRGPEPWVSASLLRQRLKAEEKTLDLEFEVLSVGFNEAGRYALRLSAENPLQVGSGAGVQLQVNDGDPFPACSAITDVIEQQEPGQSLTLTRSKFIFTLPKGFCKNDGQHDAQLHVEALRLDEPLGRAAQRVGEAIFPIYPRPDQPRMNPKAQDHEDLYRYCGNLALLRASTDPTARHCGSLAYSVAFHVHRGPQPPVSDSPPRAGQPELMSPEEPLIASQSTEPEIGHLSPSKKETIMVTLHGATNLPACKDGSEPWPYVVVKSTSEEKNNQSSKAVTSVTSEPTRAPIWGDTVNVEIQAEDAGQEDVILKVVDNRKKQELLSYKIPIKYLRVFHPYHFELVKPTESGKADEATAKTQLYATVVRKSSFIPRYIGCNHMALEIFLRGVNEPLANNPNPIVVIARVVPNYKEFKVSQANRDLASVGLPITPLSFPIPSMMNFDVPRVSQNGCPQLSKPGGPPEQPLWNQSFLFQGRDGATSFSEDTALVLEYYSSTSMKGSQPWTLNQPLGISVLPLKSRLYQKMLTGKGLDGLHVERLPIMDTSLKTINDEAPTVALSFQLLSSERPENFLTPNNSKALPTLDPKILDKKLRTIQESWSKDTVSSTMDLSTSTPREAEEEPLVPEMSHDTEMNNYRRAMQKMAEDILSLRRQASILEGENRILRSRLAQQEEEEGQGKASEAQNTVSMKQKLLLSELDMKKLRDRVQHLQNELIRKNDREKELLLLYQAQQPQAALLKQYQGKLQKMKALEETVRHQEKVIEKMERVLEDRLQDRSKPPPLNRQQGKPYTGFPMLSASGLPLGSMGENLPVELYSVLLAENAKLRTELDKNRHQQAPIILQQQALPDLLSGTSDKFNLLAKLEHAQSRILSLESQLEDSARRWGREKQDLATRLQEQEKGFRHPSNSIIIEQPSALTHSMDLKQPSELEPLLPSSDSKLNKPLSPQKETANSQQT
UniProt P49639: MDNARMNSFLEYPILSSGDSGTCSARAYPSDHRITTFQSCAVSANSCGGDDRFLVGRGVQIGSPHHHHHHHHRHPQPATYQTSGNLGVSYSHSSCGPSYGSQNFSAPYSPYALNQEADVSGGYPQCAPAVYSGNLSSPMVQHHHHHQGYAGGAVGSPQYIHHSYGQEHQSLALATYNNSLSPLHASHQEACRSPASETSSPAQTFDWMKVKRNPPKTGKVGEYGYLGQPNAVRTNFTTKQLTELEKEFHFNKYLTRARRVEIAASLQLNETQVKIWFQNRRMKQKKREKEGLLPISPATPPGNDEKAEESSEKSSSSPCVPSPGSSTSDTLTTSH
UniProt P31249: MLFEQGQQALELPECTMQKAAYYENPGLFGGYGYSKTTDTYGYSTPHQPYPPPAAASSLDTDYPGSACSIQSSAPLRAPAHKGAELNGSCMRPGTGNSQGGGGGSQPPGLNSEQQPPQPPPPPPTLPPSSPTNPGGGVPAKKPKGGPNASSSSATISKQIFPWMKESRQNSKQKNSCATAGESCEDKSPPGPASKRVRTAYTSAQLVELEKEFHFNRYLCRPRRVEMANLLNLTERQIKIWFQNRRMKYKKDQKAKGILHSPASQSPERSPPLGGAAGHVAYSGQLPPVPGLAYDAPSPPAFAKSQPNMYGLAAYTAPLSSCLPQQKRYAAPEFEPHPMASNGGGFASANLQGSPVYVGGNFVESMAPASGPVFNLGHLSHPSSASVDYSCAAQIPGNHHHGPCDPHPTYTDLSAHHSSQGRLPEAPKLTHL
UniProt Q9BYR7: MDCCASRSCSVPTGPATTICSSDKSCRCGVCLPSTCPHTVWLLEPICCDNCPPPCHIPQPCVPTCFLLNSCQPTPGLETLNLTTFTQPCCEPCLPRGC
UniProt Q9BYR6: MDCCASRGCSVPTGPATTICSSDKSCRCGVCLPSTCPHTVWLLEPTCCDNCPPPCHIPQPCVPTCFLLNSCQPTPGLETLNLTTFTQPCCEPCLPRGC
UniProt Q99697: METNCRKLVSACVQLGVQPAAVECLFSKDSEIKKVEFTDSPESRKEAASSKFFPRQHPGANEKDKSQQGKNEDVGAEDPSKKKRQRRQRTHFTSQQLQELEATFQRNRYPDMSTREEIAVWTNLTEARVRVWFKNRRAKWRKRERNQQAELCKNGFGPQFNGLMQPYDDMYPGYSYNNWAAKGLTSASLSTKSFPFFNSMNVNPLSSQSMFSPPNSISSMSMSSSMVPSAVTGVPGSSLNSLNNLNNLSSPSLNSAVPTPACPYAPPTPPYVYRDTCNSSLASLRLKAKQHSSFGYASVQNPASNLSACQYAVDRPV
UniProt Q8WUM4: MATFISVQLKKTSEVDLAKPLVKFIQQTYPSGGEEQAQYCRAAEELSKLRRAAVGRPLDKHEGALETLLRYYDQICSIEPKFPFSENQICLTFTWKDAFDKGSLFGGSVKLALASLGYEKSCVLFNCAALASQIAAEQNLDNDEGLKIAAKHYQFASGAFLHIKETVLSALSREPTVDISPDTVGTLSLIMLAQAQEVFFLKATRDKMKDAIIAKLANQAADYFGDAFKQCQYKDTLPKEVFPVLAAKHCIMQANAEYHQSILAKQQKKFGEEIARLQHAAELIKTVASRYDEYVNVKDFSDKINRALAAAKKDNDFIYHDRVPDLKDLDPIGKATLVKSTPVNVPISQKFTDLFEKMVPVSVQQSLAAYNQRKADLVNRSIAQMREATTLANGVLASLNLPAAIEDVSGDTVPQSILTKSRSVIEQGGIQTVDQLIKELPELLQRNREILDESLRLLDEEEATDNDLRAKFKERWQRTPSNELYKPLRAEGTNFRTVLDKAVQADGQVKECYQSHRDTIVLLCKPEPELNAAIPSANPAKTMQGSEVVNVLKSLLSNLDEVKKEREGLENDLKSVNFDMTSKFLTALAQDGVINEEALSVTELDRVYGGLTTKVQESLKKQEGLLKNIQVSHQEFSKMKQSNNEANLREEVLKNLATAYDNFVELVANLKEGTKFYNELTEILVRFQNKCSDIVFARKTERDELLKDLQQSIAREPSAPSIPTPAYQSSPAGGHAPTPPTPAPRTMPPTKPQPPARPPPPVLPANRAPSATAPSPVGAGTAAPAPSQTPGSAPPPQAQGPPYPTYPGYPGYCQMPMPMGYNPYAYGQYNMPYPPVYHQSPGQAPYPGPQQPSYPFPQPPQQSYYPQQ
UniProt O75865: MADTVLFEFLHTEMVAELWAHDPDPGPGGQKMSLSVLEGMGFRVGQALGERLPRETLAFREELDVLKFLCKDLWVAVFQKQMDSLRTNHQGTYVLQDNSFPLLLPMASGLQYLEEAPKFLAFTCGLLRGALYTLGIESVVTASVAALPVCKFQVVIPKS
UniProt Q9Y2Y4: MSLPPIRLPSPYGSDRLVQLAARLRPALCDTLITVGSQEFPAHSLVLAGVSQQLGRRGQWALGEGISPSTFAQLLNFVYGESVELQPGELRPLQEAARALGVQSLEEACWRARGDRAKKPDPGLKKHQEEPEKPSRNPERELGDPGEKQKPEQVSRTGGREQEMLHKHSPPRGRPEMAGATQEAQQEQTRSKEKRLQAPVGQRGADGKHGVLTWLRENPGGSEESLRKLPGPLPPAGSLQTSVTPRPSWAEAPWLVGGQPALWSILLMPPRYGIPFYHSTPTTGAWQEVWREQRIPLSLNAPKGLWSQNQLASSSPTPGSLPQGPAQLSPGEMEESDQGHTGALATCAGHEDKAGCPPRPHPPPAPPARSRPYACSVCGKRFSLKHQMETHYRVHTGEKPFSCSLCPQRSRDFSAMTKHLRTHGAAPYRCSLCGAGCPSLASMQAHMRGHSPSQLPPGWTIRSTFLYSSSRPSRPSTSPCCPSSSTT

These are yes or no findings as the source states them, for the method shown. For some assays here: In cells and extracts the contact can be indirect. Some results given as binding are weak or reduced against the parent protein; the word gives no strength.

One experiment has as its target Hoxa1 (mouse) (UniProt P09022). Briefly: two-hybrid; DB-Hoxa1 (Gal4 DNA binding domain) in MATα Y8930 mated with the AD-hORF library (human ORFeome v3.1) in MATa Y8800; 30°C; selection on Sc-L-T-H + 1 mM 3AT, retest on Sc-L-T-H, Sc-L-T-A and Sc-L-T-H-A+3AT.
For the next experiment, the target named is VC155-Hoxa1 (mouse) (UniProt P09022). Briefly: split reporter; BiFC in transfected MCF10A cells: VN173-hORF with VC155-Hoxa1; fixed 24 h after transfection, confocal microscopy.

Take “EGF-containing fibulin-like extracellular matrix protein 2 (from UniProt O95967 1-443)”: the binding result with Hoxa1 (mouse) was “binds”.

Turning to “IKAROS family zinc finger 2 (from UniProt Q9UKS7 1-526)”, in the experiment with VC155-Hoxa1 (mouse), the binding result is given as “binds”.

Turning to “LIM and senescent cell antigen-like domains 1 (from UniProt P48059 1-325)”, the binding result with VC155-Hoxa1 (mouse) is “binds”.

As for “PDZ and LIM domain 7 (from UniProt Q9NR12-1 1-457)”, the binding entry with Hoxa1 (mouse) and in the experiment with VC155-Hoxa1 (mouse) was “binds” each time.

“RNA binding protein with multiple splicing (from UniProt Q93062 1-196)”: the binding result with Hoxa1 (mouse) and with VC155-Hoxa1 (mouse) was “binds” each time.

Take “RanBP-type and C3HC4-type zinc finger containing 1 (from UniProt Q9BYM8 1-510)”: the binding result with Hoxa1 (mouse) and in the experiment with VC155-Hoxa1 (mouse) was “binds” each time.

For the substance “coiled-coil domain containing 33 (from UniProt Q8N5R6 1-958)”, the binding entry with Hoxa1 (mouse) is “binds”.

As to homeobox A1 (from UniProt P49639 1-335), the binding result with Hoxa1 (mouse) and with VC155-Hoxa1 (mouse) was “binds” each time.

In the case of homeobox D3 (from UniProt P31249 1-432), the binding result in the experiment with Hoxa1 (mouse) and in the experiment with VC155-Hoxa1 (mouse) was “binds” each time.

Consider “keratin associated protein 3-2 (from UniProt Q9BYR7 1-98)”, for which the binding entry with Hoxa1 (mouse) and with VC155-Hoxa1 (mouse) was “binds” each time.

For “keratin associated protein 3-3 (from UniProt Q9BYR6 1-98)”, the binding result with Hoxa1 (mouse) is recorded as “binds”.

For “paired-like homeodomain 2 (from UniProt Q99697 1-317)”, the binding result with VC155-Hoxa1 (mouse) was “binds”.

As to “programmed cell death 6 interacting protein (from UniProt Q8WUM4 1-868)”, in the experiment with VC155-Hoxa1 (mouse), the binding entry was “binds”.

For the substance “proprotein convertase subtilisin/kexin type 5 (from UniProt Q92824 1-1860)”, the binding entry in the experiment with Hoxa1 (mouse) was “binds”.

Consider “trafficking protein particle complex 6A (from UniProt O75865 1-159)”, for which the binding result in the experiment with VC155-Hoxa1 (mouse) is recorded as “binds”.

In the case of “zinc finger and BTB domain containing 32 (from UniProt Q9Y2Y4 1-487)”, the binding result with Hoxa1 (mouse) and with VC155-Hoxa1 (mouse) was “binds” each time.
